Whole data set: some 33,000 sequences, median “E-score (-0.5 to 0.5)” near -8e-05, cut for the highest 2% near 0.23. The list shows a part of the results.
Target: T1, Nrg2 (UniProt P38082)
T1 sequence: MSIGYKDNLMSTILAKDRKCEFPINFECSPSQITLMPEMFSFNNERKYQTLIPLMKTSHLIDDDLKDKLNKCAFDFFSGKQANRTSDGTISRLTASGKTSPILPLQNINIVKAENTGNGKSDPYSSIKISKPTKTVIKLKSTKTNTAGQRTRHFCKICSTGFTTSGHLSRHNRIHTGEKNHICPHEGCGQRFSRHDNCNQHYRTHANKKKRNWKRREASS
Assay: PBM E-score (8-mer binding enrichment) (E-score (-0.5 to 0.5)); higher = stronger / more preferred TF binding
Conditions: protein concentration: 100 nM; construct: GST-full length
Outline: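 E-scores (a modified Wilcoxon-Mann-Whitney statistic) were assigned by the Universal PBM Analysis Suite to every ungapped eight-base word pooled with its reverse complement. The input came from universal all-10-mer Agilent arrays made double-stranded by primer extension and probed with GST-tagged yeast transcription factors at about 100-200 nM. Fluorescent anti-GST detected bound protein, and masliner normalised the scans.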

Sequence | PBM E-score
GCTAAACC | -0.258
AGATTACA | -0.0219
ACTAAGAC | -0.158
GTTCGCGA | 0.0981
CTCGTCAA | -0.037
CTGTCCCA | -0.216
GAGCCGCC | -0.0798
AGTTATAC | 0.00861
ACCGAGAC | 0.0453
GCATGTCA | 0.0509
GCTTCAAC | 0.00148
CGTCGAAA | 0.075
CCCTCCGG | -0.269
GGCCGAAC | -0.172
AATTTTGG | 0.0507
AAATAACC | -0.0181
TCGTATAA | 0.146
CCAAAGAG | -0.0632
GAGGTGAA | 0.00453
ACGAGTAC | 0.0318
CCCACATC | -0.0924
CAACCGTG | -0.105
CGGCGGGA | -0.177
AAGGAATA | 0.191
CACGCCCA | -0.0984

Sequence | PBM E-score
ATACGCCA | -0.044
AGAGGAGG | -0.333
AACCGCAA | 0.185
CCGTCTAG | -0.0277
ACACAGTC | 0.105
CCAAAGCC | -0.0707
GTCTCTAA | 0.00343
ACTACATA | 0.0943
CTAATCAC | 0.194
CTTTCTCC | -0.142
CTGATGCC | -0.0784
AAGGACTG | -0.209
GCCCTAAC | 0.122
GTTCCCGA | -0.0852
TAGCTATA | 0.0144
CTCATGGC | 0.0578
ACGTGCGA | -0.164
CTCACCAA | 0.173
ATGGAATC | 0.267
GCTGGCAC | -0.0654
CAGCACCC | -0.292
ATCAAGAG | 0.16
ATTTGTCC | 0.139
ATTGGACC | 0.0507
ATGAATGG | 0.339

Sequence | PBM E-score
AGGCTCAA | -0.0585
ACGCGTAA | -0.0223
CGCAATTC | 0.156
CAAAGCGC | 0.0307
CGGACCAG | 0.101
ACACGGCG | 0.0413
ACCCGGAT | -0.0838
ACCACAGG | -0.0691
ATCCCGCC | 0.0743
ATCCTTAG | -0.109
ATCTCACG | 0.0639
AGATAGAT | -0.0966
GGCTATAA | -0.165
GCAACAGA | 0.0125
AACCTCAT | -0.0112
GTATACGA | -0.106
AATGAACA | 0.173
CATCCGGG | -0.0671
TTAAACAA | -0.0194
CAAAAGGC | 0.0593
GGCACGCC | -0.31
CATTTTCC | 0.0879
CATTGATC | 0.0648
ATGTATAC | 0.126
GACGAGCC | 0.0584

Single entries from the list:
CATCCGGG – PBM E-score: -0.0671
ATCCTTAG – PBM E-score: -0.109
GGCACGCC – PBM E-score: -0.31
CATTTTCC – PBM E-score: 0.0879

Later entries

Sequence | PBM E-score
CGGGCCTA | -0.0975
GAACTTTA | -0.0689
CGGCCACA | 0.0914
ACGACCCA | 0.0623
GCATGCTA | -0.0999
CGGAGCAA | 0.0265
CGGATCTA | -0.11
CTCTTACA | -0.119
ATGTAAAC | 0.1
ACTCCCGC | -0.0823
ACACGCCA | 0.0125
GTTCGCCA | -0.0462
AAAGGACT | -0.155
GCCCGCAA | 0.0877
CATCAAAA | 0.0292
ACGTTTCG | -0.104
ACAGATAT | 0.115
AAACTAAG | 0.185
ATCATCAT | -0.00753
GAATAGGA | 0.0976
ACTAAAAC | 0.125
TACGAAAA | -0.0899
AGCTGTCC | 0.0544
GGGTGTCA | 0.0253
TACGCCTA | -0.227

Sequence | PBM E-score
AGAGTTTG | 0.0665
AAACCTGC | 0.101
CGTCACCA | -0.0898
AATAATGC | 0.083
CGGCAACA | 0.0747
CCCCGACC | -0.101
TAGAGCGA | -0.079
CGGGACGA | 0.0185
ACTTAAGC | -0.222
AAAAAGAG | -0.0377
AAGTCCAG | 0.0978
GCGAATAA | 0.18
AGACCGAG | -0.053
GGAATGGA | -0.0278
CCAGGGCC | 0.106
ACGATAAG | 0.0548
AATTCTAC | 0.231
TAATCTCA | 0.0067
GCTTGCAA | 0.206
ACGGGCTA | -0.131
CTTCTGAA | -0.0225
CCGCGACG | -0.247
ATAGGTAG | -0.0537
AAGTTAAA | 0.076
ACATGGCG | -0.126

Sequence | PBM E-score
GGACAAAA | 0.159
CGGCATTC | 0.0691
GGGGTATA | 0.0333
AGCCCACA | -0.0846
ACATGGAC | 0
ATGCACCC | 0.013
CACTCGAC | -0.0704
AAAGGGCC | 0.125
CTGGGAAG | -0.0935
ATTGGCGC | -0.0325
CTGAGAAC | 0.0907
TCATTTCA | 0.118
CAAATGTC | -0.0721
CTATCGAG | -0.0206
GGTCACCA | -0.355
CCGTACTC | -0.0831
GCCGCCTA | -0.0809
ACCAACAT | 0.0787
CTGTGTAC | 0.0416
AGTTATCG | 0.076
CGTGGGGC | 0.0844
AAGCTAAT | 0.11
CCAGCGAA | -0.0764
CAGGTGAA | 0.125
CAGATCCA | 0.0254

Sequence | PBM E-score
CCAAAACC | 0.0823
AGCCAGCC | -0.247
GTCAACAA | -0.0634
AAATAGTA | 0.173
ACTGTCTG | -0.0959
CGGGGGTA | -0.189
AGTGTGCC | 0.0855
CCCGAAAA | 0.129
CACGCTTA | -0.0853
AGGCTAAT | 0.0429
AATGCTGT | -0.165
GCCTGCCA | -0.147
CATGTACC | -0.265
AAACCAAA | 0.0963
ACTGTAAA | 0.141
TGACCGAA | -0.0761
ATGGGTAG | -0.13
CATAAGAC | -0.0288
ACCCGGAG | -0.063
GAACTTGC | -0.132
CTTCGATA | -0.0721
GCCGACAC | -0.0613

An excerpt of these results, as comma-separated lines.
Sequence,PBM E-score
ACTGTAAA,0.141
TGACCGAA,-0.0761
